In US9622987B2, “Synergistic pharmaceutical composition useful for the treatment of lung cancer” (Council of Scientific & Industrial Research, priority 2012, dated 2017):
Some of these results come from one statement about several compounds together. For at least one compound, name, drawing or mass did not settle the structure.

System: Lung Cancer cell Line (A-549)
Experiment: Cell death / viability of A549 lung cancer cells exposed to vapour (MTT, trypan blue)
Assay type: cell-based
Settings: vapors, 1:2000 dilution, 48 h

Row | Structure (SMILES) | higher activity as compared to C1
1 | C=C(C)[C@@H]1CC[C@@H](C)C[C@H]1O [Compound C3, Isopulegol] | more than 56%
2 | C=C(C)C1CCC(C)CC1O (centres unmarked) [Compound C2, Neo-isopulegol] | more than 56%
